{
  "source": "PubChem BioAssay AID318",
  "about": "(DTP/NCI, 2004)",
  "tested_on": "BDF1 mice, P815 leukemia ip, survival T/C",
  "assay": "NCI In Vivo Anticancer Drug Screen. Data for tumor model P815 Mast Cell Leukemia (Ascitic) (intraperitoneal) in B6D2F1 (BDF1) mice",
  "conditions": "higher T/C = longer survival",
  "protocol": "The antitumor activity of compounds was measured in mice bearing transplantable tumors. Survival or tumor size were measured and the results are expressed as the measurement made in the treated group (T) divided by the measurement made in the vehicle treated control group (C). The tumor model used in this assay is P815 Mast Cell Leukemia (Ascitic) (intraperitoneal) in B6D2F1 (BDF1) mice",
  "key": {"[1]": {"conditions": "T/C endpoint: survival time, mean or median, dose: 16.0 mg/kg/injection, schedule: Q01DX010 (ip), vehicle: saline"}, "[2]": {"conditions": "T/C endpoint: survival time, mean or median, dose: 32.0 mg/kg/injection, schedule: Q01DX010 (ip), vehicle: saline"}, "[3]": {"conditions": "T/C endpoint: survival time, mean or median, dose: 2.5 mg/kg/injection, schedule: Q01DX015 (ip), vehicle: carboxymethylcellulose (CMC)"}, "[4]": {"conditions": "T/C endpoint: survival time, mean or median, dose: 40.0 mg/kg/injection, schedule: Q01DX010 (ip), vehicle: saline"}},
  "note": "The list is a part of this screen's results and no random one: it gathers tests that were run many times, whatever their T/C, doses with no T/C, and many T/C values between a quarter and a half above the control. Other doses and runs of a compound stand elsewhere. T/C gives the treated animals as a percentage of the vehicle group. Some entries give survivors of the animals treated and no T/C: the source holds a T/C of zero for them, seemingly a mark for toxic or unscored doses. Some survivor counts are full or nearly so, which does not show that the dose was tolerated: the source hardly ever lists a survival T/C far under the control, and the zero likely stands for such cases as well. Counts of survivors are from the toxicity check (mostly the fifth day) where no day follows; animals may have died later. Schedules are NCI's codes, taken here to give the interval after Q, in days (D) or hours (H), and the number of doses after X. For survival time, the PubChem record calls one and a half times the control and up active, and a quarter to a half above the control has no call in these data; cut-offs in other NCI protocols can differ. Some entries hold several experiments; the results are listed from low to high. Brackets with × give the number of equal values in this list.",
  "data": [
    {"smiles": "CN(C)c1ccc(Nc2c3ccccc3nc3ccccc23)cc1", "values": [
      {"measurement": "T/C", "setting": "T/C endpoint: survival time, mean or median, dose: 80.0 mg/kg/injection, schedule: Q01DX010 (ip), vehicle: saline", "result": "135 % of control"},
      {"measurement": "survivor count", "setting": "T/C endpoint: survival time, mean or median, dose: 120.0 mg/kg/injection, schedule: Q01DX010 (ip), vehicle: saline", "result": "5 of 6"}
    ]},
    {"smiles": "CSc1ncnc2nc[nH]c12", "values": [
      {"measurement": "survivor count", "setting": "T/C endpoint: survival time, mean or median, dose: 400.0 mg/kg/injection, schedule: Q01DX010 (ip), vehicle: saline", "result": "4 of 6"}
    ]},
    {"smiles": "CCCSc1ncnc2nc[nH]c12", "values": [
      {"measurement": "survivor count", "setting": "T/C endpoint: survival time, mean or median, dose: 250.0 mg/kg/injection, schedule: Q01DX010 (ip), vehicle: saline", "result": "0 of 6"}
    ]},
    {"smiles": "O=C(Nc1ccc(NC2=NCCN2)cc1)c1ccc(C(=O)Nc2ccc(NC3=NCCN3)cc2)cc1", "values": [
      {"measurement": "T/C", "setting": "T/C endpoint: survival time, mean or median, dose: 8.0 mg/kg/injection, schedule: Q01DX010 (ip), vehicle: saline", "result": "142 and 147 % of control"},
      {"measurement": "survivor count", "setting": "[1]", "result": "6 of 6"}
    ]},
    {"smiles": "CC(CCC(C)OS(C)(=O)=O)OS(C)(=O)=O", "note": "(centres undefined)", "values": [
      {"measurement": "T/C", "setting": "[1]", "result": "127 % of control"},
      {"measurement": "survivor count", "setting": "[2]", "result": "6 of 6"}
    ]},
    {"smiles": "CCCCOP(=S)(N1CC1)N1CC1", "values": [
      {"measurement": "survivor count", "setting": "[2]", "result": "6 of 6"}
    ]},
    {"smiles": "CN(Cc1cnc2nc(N)nc(N)c2n1)c1c(Cl)cc(C(=O)NC(CCC(=O)O)C(=O)O)cc1Cl", "note": "(centres undefined)", "values": [
      {"measurement": "T/C", "setting": "[3]", "result": "147 % of control"},
      {"measurement": "T/C", "setting": "T/C endpoint: survival time, mean or median, dose: 75.0 mg/kg/injection, schedule: Q01DX015 (ip), vehicle: carboxymethylcellulose (CMC)", "result": "127 % of control"},
      {"measurement": "survivor count", "setting": "T/C endpoint: survival time, mean or median, dose: 125.0 mg/kg/injection, schedule: Q01DX015 (ip), vehicle: carboxymethylcellulose (CMC)", "result": "10 of 10"}
    ]},
    {"smiles": "CCOC(=O)c1c[nH]c2ccc(N(CCCl)CCCl)cc12", "values": [
      {"measurement": "T/C", "setting": "T/C endpoint: survival time, mean or median, dose: 10.0 mg/kg/injection, schedule: Q01DX010 (ip), vehicle: saline", "result": "137 % of control"},
      {"measurement": "T/C", "setting": "T/C endpoint: survival time, mean or median, dose: 20.0 mg/kg/injection, schedule: Q01DX010 (ip), vehicle: saline", "result": "137 % of control"},
      {"measurement": "T/C", "setting": "[4]", "result": "137 % of control"}
    ]},
    {"smiles": "CN=C(NC)c1ccc(NC(=O)c2ccc(C(=O)Nc3ccc(C(=NC)NC)cc3)c(Cl)c2)cc1", "values": [
      {"measurement": "survivor count", "setting": "[4]", "result": "6 of 6"},
      {"measurement": "survivor count", "setting": "T/C endpoint: survival time, mean or median, dose: 60.0 mg/kg/injection, schedule: Q01DX010 (ip), vehicle: saline", "result": "4 of 6"}
    ]},
    {"smiles": "O=C(Nc1ccc(C2=NCCN2)cc1)c1ccc(C(=O)Nc2ccc(C3=NCCN3)cc2)cc1", "values": [
      {"measurement": "T/C", "setting": "T/C endpoint: survival time, mean or median, dose: 4.0 mg/kg/injection, schedule: Q01DX010 (ip), vehicle: other", "result": "147, 150, 158, 174 % of control"},
      {"measurement": "T/C", "setting": "T/C endpoint: survival time, mean or median, dose: 8.0 mg/kg/injection, schedule: Q01DX010 (ip), vehicle: other", "result": "155, 157, 219, 271 % of control"},
      {"measurement": "T/C", "setting": "T/C endpoint: survival time, mean or median, dose: 16.0 mg/kg/injection, schedule: Q01DX010 (ip), vehicle: other", "result": "152, 173, 177, 214 % of control"},
      {"measurement": "T/C", "setting": "T/C endpoint: survival time, mean or median, dose: 32.0 mg/kg/injection, schedule: Q01DX010 (ip), vehicle: other", "result": "140 (2×), 150, 155 % of control"},
      {"measurement": "T/C", "setting": "T/C endpoint: survival time, mean or median, dose: 64.0 mg/kg/injection, schedule: Q01DX010 (ip), vehicle: other", "result": "122 (2×), 142, 152 % of control"}
    ]},
    {"smiles": "Nc1nc2n[nH]nc2c(=O)[nH]1", "values": [
      {"measurement": "T/C", "setting": "T/C endpoint: survival time, mean or median, dose: 25.0 mg/kg/injection, schedule: Q01DX010 (ip), vehicle: alkali diluted with saline", "result": "144 % of control"},
      {"measurement": "T/C", "setting": "T/C endpoint: survival time, mean or median, dose: 50.0 mg/kg/injection, schedule: Q01DX010 (ip), vehicle: alkali diluted with saline", "result": "144 % of control"},
      {"measurement": "T/C", "setting": "T/C endpoint: survival time, mean or median, dose: 100.0 mg/kg/injection, schedule: Q01DX010 (ip), vehicle: alkali diluted with saline", "result": "133 % of control"},
      {"measurement": "T/C", "setting": "T/C endpoint: survival time, mean or median, dose: 200.0 mg/kg/injection, schedule: Q01DX010 (ip), vehicle: alkali diluted with saline", "result": "138 % of control"}
    ]},
    {"smiles": "C(CC1CO1)C1CO1", "note": "(centres undefined)", "values": [
      {"measurement": "T/C", "setting": "T/C endpoint: survival time, mean or median, dose: 27.0 mg/kg/injection, schedule: Q01DX015 (ip), vehicle: saline", "result": "139 % of control"},
      {"measurement": "survivor count", "setting": "T/C endpoint: survival time, mean or median, dose: 90.0 mg/kg/injection, schedule: Q01DX015 (ip), vehicle: saline", "result": "6 of 10"}
    ]},
    {"smiles": "CC(=O)O[C@]1(C(C)=O)CC[C@H]2[C@@H]3C[C@H](C)C4=CC(=O)C=C[C@]4(C)[C@@]3(F)[C@@H](O)C[C@@]21C", "values": [
      {"measurement": "survivor count", "setting": "T/C endpoint: survival time, mean or median, dose: 50.0 mg/kg/injection, schedule: Q01DX010 (sc), vehicle: steroid suspending solution", "result": "5 of 6"}
    ]},
    {"smiles": "O=c1[nH]cc(F)c(=O)[nH]1", "values": [
      {"measurement": "T/C", "setting": "T/C endpoint: median survival time, dose: 28.8 mg/kg/injection, schedule: Q04DX003 (ip), vehicle: saline", "result": "140 % of control"},
      {"measurement": "T/C", "setting": "T/C endpoint: median survival time, dose: 48.0 mg/kg/injection, schedule: Q04DX003 (ip), vehicle: saline", "result": "141 % of control"},
      {"measurement": "T/C", "setting": "[3]", "result": "130 % of control"},
      {"measurement": "T/C", "setting": "T/C endpoint: survival time, mean or median, dose: 5.0 mg/kg/injection, schedule: Q01DX010 (ip), vehicle: saline", "result": "125 % of control"},
      {"measurement": "T/C", "setting": "T/C endpoint: survival time, mean or median, dose: 10.0 mg/kg/injection, schedule: Q01DX015 (ip), vehicle: carboxymethylcellulose (CMC)", "result": "142 % of control"}
    ]}
  ]
}
